At least one compound was matched to its structure with a doubt left.
Test system: HIV-1 NL4-3 in Raji-CD4-DCIR cells
Assay: HIV-1 binding/entry assay in Raji-CD4-DCIR cells (cell-associated p24 ELISA)
Type: cell-based
Conditions: for HIV-1 binding/entry: cells pretreated with inhibitor 10 min, pulsed with NL4-3 60 min, result in words
Protocol: FIG. 2A: Raji-CD4 and Raji-CD4-DCIR cells were either left untreated or treated with SSG (100 μg/ml) for 10 min at 37° C. Thereafter, cells were pulsed with NL4-3 for 60 min. After three washes with PBS to remove non-adsorbed virus, cell-associated virus was quantified by measuring the p24 content. Data shown correspond to the means±SD of triplicate samples from three combined independent experiments. The asterisk denotes statistically significant data (*, P<0.05; **, P<0.01). FIG. 2B: Cells were either left untransfected or transfected with a sense or antisense oligonucleotide specific for the signalling protein of interest. Next, cells were pulsed with NL4-3 for 60 min. After three washes with PBS to eliminate unbound virus, cell-associated virus was quantified by measuring the p24 content. Data shown correspond to the means±SD of triplicate samples from three combined independent experiments. The asterisk denotes statistically significant data (*, P<0.05; **, P<0.01). After gene silencing, the diminution of the targeted protein was verified by western blots, provided as an insert for each graph.
Where indicated, parental Raji-CD4 cells (DCIR-negative) or Raji-CD4-DCIR transfectants (1×10^6) were pretreated with the indicated amount of a pharmacological inhibitor for 10 min or transfected with sense or antisense oligonucleotides as described below. Cells were then pulsed with NL4-3 (100 ng of p24) for 60 min at 37° C. Next the virus-cell mixture was washed 3 times with PBS to remove unbound virus and resuspended in PBS containing 1% BSA. To assess binding/entry, the p24 content was determined by our in-house ELISA assay^33.
Raji-CD4 and Raji-CD4-DCIR cells (1×10^6 cells) were washed with OptiMEM (Invitrogen Life Technologies) without serum and antibiotics. The phosphorothioate oligodeoxynucleotides (Listed in Table 1) (Invitrogen Life Technologies) were transfected at a final concentration of 10 μM/well^35 using Oligofectamine according to the manufacturer's instructions (Invitrogen Life Technologies). Silencing efficiency was monitored by western blot analysis.

SMILES | HIV-1 binding/entry | Binding/entry (Table 3, pharmacological inhibitors, symbols not defined)
O=c1cc(N2CCOCC2)oc2c(-c3ccccc3)cccc12 [LY294002] | No modulation | –
COC[C@H]1OC(=O)c2coc3c2[C@@]1(C)C1=C(C3=O)[C@@H]2CCC(=O)[C@@]2(C)C[C@H]1OC(C)=O [Wortmanin, Wortmannin] | No modulation | Ø
